Assay results published in PubChem BioAssay AID248 (DTP/NCI, 2004).
The list is a part of this screen's results and no random one: it is rich in T/C values a quarter to a half above the control, in often repeated tests (any T/C) and in doses without a T/C. Other doses and runs of a compound stand elsewhere. T/C: endpoint of the treated group in % of that of the vehicle group. Some entries give survivors of the animals treated and no T/C: the source files T/C as zero there, which appears to mark a toxic dose or a test without result, not a measured value. Some doses without a T/C left all or most animals alive at the check, yet need not have been tolerated: the source hardly ever lists a survival T/C far under the control, and the zero likely stands for such cases as well. Survivors were counted at the toxicity check, usually on the fifth day, unless a day is given; later deaths do not show. Schedule codes are those of the source, taken here to give the interval after Q, in days (D) or hours (H), and the number of doses after X. Some entries were tested several times; the results are listed from low to high. Some schedules carry Z or #; the key to these is not given. Marks such as (2×) give the number of equal values in this list. Where survival is the endpoint, this PubChem deposit counts one and a half times the control or more as active, and values a quarter to a half above the control carry no call in these data; other NCI protocols may use other cut-offs. Some T/C values are followed by the survivors on the day toxicity was checked, most often the fifth; where none is given, no animal had died by that day.

Test system: L1210 leukemia ip in BDF1 mice, survival T/C
Assay: NCI In Vivo Anticancer Drug Screen. Data for tumor model L1210 Leukemia (intraperitoneal) in B6D2F1 (BDF1) mice
Details: higher T/C = longer survival
[1] = T/C endpoint: mean survival time, dose: 2.0 mg/kg/injection, schedule: Q01DX009 (ip), vehicle: saline
[2] = T/C endpoint: mean survival time, dose: 2.0 mg/kg/injection, schedule: Q01DX010 (ip), vehicle: saline
[3] = T/C endpoint: mean survival time, dose: 4.0 mg/kg/injection, schedule: Q01DX001 (ip), vehicle: saline
[4] = T/C endpoint: mean survival time, dose: 4.0 mg/kg/injection, schedule: Q04DX003 (ip), vehicle: saline
[5] = T/C endpoint: mean survival time, dose: 4.0 mg/kg/injection, schedule: Q## X003 (ip), vehicle: saline

C1CN1c1nc(N2CC2)nc(N2CC2)n1
survivor count (T/C endpoint: mean survival time, dose: 2.0 mg/kg/injection, schedule: Q01DX006 (iv), vehicle: saline): 6 of 6
T/C [1]: 89 % of control
survivor count [1]: 4 of 6 and 6 of 6
T/C (T/C endpoint: mean survival time, dose: 2.0 mg/kg/injection, schedule: Q01DX009 (oral), vehicle: saline): 143 % of control
T/C [2]: 88 % of control
survivor count [2]: 6 of 6
survivor count (T/C endpoint: mean survival time, dose: 2.0 mg/kg/injection, schedule: Q01DX Z (im), vehicle: saline): 5 of 6
survivor count (T/C endpoint: mean survival time, dose: 2.0 mg/kg/injection, schedule: Q01DX Z (ip), vehicle: saline): 6 of 6
T/C (T/C endpoint: mean survival time, dose: 2.0 mg/kg/injection, schedule: Q01DX Z (oral), vehicle: saline): 125 % of control
survivor count (T/C endpoint: mean survival time, dose: 2.0 mg/kg/injection, schedule: Q01DX Z (sc), vehicle: saline): 6 of 6
T/C (T/C endpoint: mean survival time, dose: 2.0 mg/kg/injection, schedule: Q04DX003 (ip), vehicle: Klucel (hydroxypropylcellulose) (HPC)): 125 and 130 % of control
T/C (T/C endpoint: mean survival time, dose: 2.0 mg/kg/injection, schedule: Q04DX003 (ip), vehicle: saline, evaluated on day 20): 88 % of control
T/C (T/C endpoint: mean survival time, dose: 2.0 mg/kg/injection, schedule: Q04DX003 (ip), vehicle: saline, evaluated on day 30): 113, 125, 134, 138, 178, 197, 219, 223 % of control
T/C (T/C endpoint: mean survival time, dose: 2.0 mg/kg/injection, schedule: Q04DX003 (ip), vehicle: saline, evaluated on day 60): 94, 95, 100, 112, 116 % of control
T/C (T/C endpoint: mean survival time, dose: 2.0 mg/kg/injection, schedule: Q## X008 (ip), vehicle: saline): 129 and 136 % of control
survivor count (T/C endpoint: mean survival time, dose: 2.0 mg/kg/injection, schedule: Q#A X Z (ip), vehicle: saline): 6 of 6
survivor count (T/C endpoint: mean survival time, dose: 2.25 mg/kg/injection, schedule: Q01DX005 (ip), vehicle: saline): 9 of 10
survivor count (T/C endpoint: mean survival time, dose: 3.0 mg/kg/injection, schedule: Q03DX Z (ip), vehicle: saline): 7 of 7
survivor count (T/C endpoint: mean survival time, dose: 3.2 mg/kg/injection, schedule: Q01DX009 (ip), vehicle: saline): 5 of 6
survivor count (T/C endpoint: mean survival time, dose: 3.5 mg/kg/injection, schedule: Q07DX Z (ip), vehicle: saline): 7 of 7
T/C [3]: 154 % of control
survivor count [3]: 6 of 10 and 7 of 7
survivor count (T/C endpoint: mean survival time, dose: 4.0 mg/kg/injection, schedule: Q01DX001 (sc), vehicle: saline): 1 of 10
survivor count (T/C endpoint: mean survival time, dose: 4.0 mg/kg/injection, schedule: Q01DX005 (ip), vehicle: saline): 10 of 10
survivor count (T/C endpoint: mean survival time, dose: 4.0 mg/kg/injection, schedule: Q01DX009 (ip), vehicle: saline): 6 of 6
survivor count (T/C endpoint: mean survival time, dose: 4.0 mg/kg/injection, schedule: Q01DX010 (oral), vehicle: carboxymethylcellulose (CMC)): 6 of 6
survivor count (T/C endpoint: mean survival time, dose: 4.0 mg/kg/injection, schedule: Q04DX003 (ip), vehicle: Klucel (hydroxypropylcellulose) (HPC)): 3 of 6 and 4 of 6
T/C [4]: 86, 88, 89, 91, 122 % of control
survivor count [4]: 2 of 10, 3 of 10, 4 of 10, 3 of 6, 6 of 10, 8 of 10, 5 of 6, 6 of 6 (2×)
T/C [5]: 148 % of control [8 of 10 alive]
survivor count [5]: 4 of 10
T/C (T/C endpoint: mean survival time, dose: 4.0 mg/kg/injection, schedule: Q## X016 (ip), vehicle: saline): 137 % of control
survivor count (T/C endpoint: mean survival time, dose: 4.0 mg/kg/injection, schedule: Q## X024 (ip), vehicle: saline): 4 of 10 and 9 of 10
survivor count (T/C endpoint: mean survival time, dose: 6.0 mg/kg/injection, schedule: Q03DX Z (ip), vehicle: saline): 7 of 7
survivor count (T/C endpoint: mean survival time, dose: 6.25 mg/kg/injection, schedule: Q01DX001 (ip), vehicle: saline): 6 of 6
survivor count (T/C endpoint: mean survival time, dose: 7.0 mg/kg/injection, schedule: Q07DX Z (ip), vehicle: saline): 7 of 7
survivor count (T/C endpoint: mean survival time, dose: 8.0 mg/kg/injection, schedule: Q01DX001 (ip), vehicle: saline): 8 of 10 and 7 of 7
T/C (T/C endpoint: mean survival time, dose: 8.0 mg/kg/injection, schedule: Q01DX001 (oral), vehicle: saline): 129 % of control
survivor count (T/C endpoint: mean survival time, dose: 8.0 mg/kg/injection, schedule: Q01DX005 (ip), vehicle: saline): 6 of 10
survivor count (T/C endpoint: mean survival time, dose: 8.0 mg/kg/injection, schedule: Q01DX010 (oral), vehicle: carboxymethylcellulose (CMC)): 5 of 6
survivor count (T/C endpoint: mean survival time, dose: 8.0 mg/kg/injection, schedule: Q01DX Z (oral), vehicle: saline): 6 of 6
survivor count (T/C endpoint: mean survival time, dose: 8.0 mg/kg/injection, schedule: Q## X008 (ip), vehicle: saline): 5 of 10
survivor count (T/C endpoint: mean survival time, dose: 12.5 mg/kg/injection, schedule: Q01DX001 (ip), vehicle: saline): 6 of 6
survivor count (T/C endpoint: mean survival time, dose: 14.0 mg/kg/injection, schedule: Q07DX Z (ip), vehicle: saline): 7 of 7
survivor count (T/C endpoint: mean survival time, dose: 16.0 mg/kg/injection, schedule: Q01DX001 (ip), vehicle: saline): 4 of 7
T/C (T/C endpoint: mean survival time, dose: 16.0 mg/kg/injection, schedule: Q01DX001 (oral), vehicle: saline): 127 % of control [7 of 10 alive]
survivor count (T/C endpoint: mean survival time, dose: 25.0 mg/kg/injection, schedule: Q01DX001 (ip), vehicle: saline): 2 of 6 and 6 of 6
survivor count (T/C endpoint: mean survival time, dose: 50.0 mg/kg/injection, schedule: Q01DX001 (ip), vehicle: saline): 0 of 6
survivor count (T/C endpoint: mean survival time, dose: 100.0 mg/kg/injection, schedule: Q01DX001 (ip), vehicle: saline): 0 of 6
survivor count (T/C endpoint: mean survival time, dose: 200.0 mg/kg/injection, schedule: Q01DX001 (ip), vehicle: saline): 0 of 6
T/C (T/C endpoint: median survival time, dose: 1.0 mg/kg/injection, schedule: Q01DX001 (ip), vehicle: saline, evaluated on day 8): 136 % of control
T/C (T/C endpoint: median survival time, dose: 1.0 mg/kg/injection, schedule: Q01DX001 (ip), vehicle: saline, evaluated on day 30): 136 % of control
T/C (T/C endpoint: median survival time, dose: 2.0 mg/kg/injection, schedule: Q01DX001 (ip), vehicle: saline, evaluated on day 8): 126 % of control
T/C (T/C endpoint: median survival time, dose: 2.0 mg/kg/injection, schedule: Q01DX001 (ip), vehicle: saline, evaluated on day 30): 126 % of control
